Reference: patent publication US7939589B2, “Polyhydroxy-diamines as low odor, low VOC multi-functional additives for paints and coatings” (Angus Chemical Company, priority 2009, dated 2011)

Tests used:
[1] = Film yellowing after UV-B exposure; details: 116 hours at 50° C., UVB-313
[2] = Blocking resistance (ASTM D 4946); details: 1 kg weights, 30 minutes @ 50° C.; scale 0 (greatest adhesion) to 10 (least adhesion)

Structure (SMILES) | Film yellowing after 116 hr UV-B exposure (b*, yellownwess) [1] | Blocking resistance, 1 day cure [2] | Blocking resistance, 3 days cure [2]
CCC(N)(CO)CO [AEPD, 2-Amino-2-ethyl-1,3-propane-diol, reference compound] | 1.68 |  | 
CC(C)(N)CO [AMP, 2-Amino-2-methyl-1-propanol, reference compound] | 1.39 | 5 | 6
CCCCN(CCO)CCO [NBDA, N-Butyl-diethanolamine, reference compound] | 1.64 |  | 
NC1(CNC(CO)(CO)CO)CCCCC1 [TA-ACyHM, 2-((1-aminocyclohexyl)methylamino)-2-(hydroxymethyl)propane-1,3-diol] | 1.65 | 5/5 | 5/5
CC(C)(N)CNC(CO)(CO)CO [TA-AMP, 2-(2-Amino-2-methylpropylamino)-2-(hydroxymethyl)propane-1,3-diol] | 1.69 |  | 
